Drawing on PubChem BioAssay AID2685 (National Center for Advancing Translational Sciences (NCATS), 2010), this text covers cell number change and AC50 for 63 compounds.

This is one part of the list. Shown are side measurements of this screen, not its main read-out; they come without a call. Most of these compounds were active or inconclusive in the main read-out, so they are no random draw. Words in brackets tell the shape of the fitted curve; partial curves, single points and poor fits give uncertain potencies.

This test is described as follows: qHTS Assay for Lipid Storage Modulators in Drosophila S3 Cells.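 On cell number change: cells counted by Cell Tracker Red CMTPX staining in the red channel.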 To be noted: BODIPY lipid droplet fluorescence, 18-24 h; for cell number change: measured here: cell count max response, cells fed with added oleic acid. In a few lines:
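Drosophila S3 cells loaded with oleic acid (400 uM, as added) and compounds at several concentrations; lipid droplets imaged by 488-nm laser-scanning cytometry, 500–530 nm intensity and object ratio to cell channel. Percent activity normalized to 20 uM Triacsin C.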

Setting [1] is: measured here: cell number channel AC50, cells fed with added oleic acid.
Setting [2] is: measured here: lipid fluorescence (Fed channel) AC50, cells fed with added oleic acid.

As usually defined, the AC50 is the concentration at which the activity in the assay is half-maximal. A low value points to activity at low concentration. Turning to `CN(Cc1ccc(F)cc1)C(=O)c1ccc(NS(=O)(=O)c2ccccc2)cc1`, the cell number change is 73.4%. Further, under setting [1], the AC50 was 29.1 µM [rising, single point]. On to `O=C(COc1ccccc1)N(Cc1cccc(F)c1)C1CCS(=O)(=O)C1` (configuration not stated), for which the cell number change worked out at 17.2%. The AC50 under setting [2] is 29.1 µM [falling, single point]. For `COc1ccc(-c2csc(NC(=O)Cc3cccc4ccccc34)c2C(=O)O)cc1`, the cell number change was -16.6%. Take `COc1ccc(-c2csc(-c3cccs3)n2)c(OC)c1`: the cell number change is 21%. Further, the AC50 under setting [2] was 0.0116 µM [falling, full curve, poor fit]. Consider `O=c1cc(CSc2nnc(-c3ccco3)o2)c2ccccc2[nH]1`, for which the cell number change is 20.6%. The AC50 under setting [1] is 4.11 µM [rising, partial curve, poor fit]. In addition, under setting [2], the AC50 was 5.8 µM [rising, partial curve]. As to `Cc1cccc(NC(=O)NCC(F)(F)F)n1`, the cell number change was determined as 42.1%. Under setting [1], the AC50 is 0.0206 µM [rising, full curve, poor fit]. Further, the AC50 under setting [2] is 29.1 µM [rising, partial curve, poor fit].

Take `CC(C)COc1ccc(C2NC(=O)NC2=O)cc1` (configuration not stated): the cell number change is -12.5%. The AC50 under setting [2] is 23.1 µM [falling, partial curve]. Consider `COc1ccc(C(=O)NCc2ccc3c(c2)cc(C)n3C)cc1OC`, for which the cell number change is 36.3%. Under setting [1], the AC50 is 0.164 µM [rising, full curve, poor fit]. Besides, under setting [2], the AC50 was 29.1 µM [rising, single point]. For the compound `Cc1cc(NC(=O)CCC(=O)N(CC(=O)NC2CCCC2)c2ccc(F)cc2)no1`, the cell number change was 2.56%. In addition, the AC50 under setting [2] was 6.51 µM [rising, single point].

Take `CCCN(CC1CCCO1)C(=O)CCc1nnc(CCc2ccc(OC)cc2)o1` (configuration not stated): the cell number change was determined as 33.1%. Besides, the AC50 under setting [1] is 0.13 µM [rising, full curve, poor fit]. As to `O=C(NCc1ccccc1CN1CCCC1)c1cccc(N2CCCC2=O)c1`, the cell number change was -1.07%. Also, under setting [2], the AC50 is 1.84 µM [falling, partial curve, poor fit].

On to `O=C(CSc1ccc(-c2ccc3c(c2)OCO3)nn1)Nc1nccs1`, for which the cell number change was -20.1%.

As to `COc1ccc(CN2CCN(Cc3cccc(Oc4ccccc4)c3)CC2)c(OC)c1OC`, the cell number change was -46.9%. The AC50 under setting [1] was 29.1 µM [falling, single point].

Turning to `O=C(NNS(=O)(=O)c1ccccc1F)c1sccc1-n1cccc1`, the cell number change was -7.47%. On to `NC(=O)Cn1c(=O)n(CCCC(=O)NC2CCN(Cc3ccccc3)CC2)c(=O)c2ccccc21`, for which the cell number change is -4.9%. Further, the AC50 under setting [1] was 0.00517 µM [falling, full curve, poor fit]. In addition, the AC50 under setting [2] is 0.00411 µM [rising, full curve, poor fit]. As to `O=C(Cn1cc(C(F)(F)F)ccc1=O)N1CCc2ccccc2C1`, the cell number change is -1.56%. Also, under setting [2], the AC50 is 5.8 µM [rising, full curve]. For `c1ccc(Nc2nc(-c3ccccc3)ns2)cc1`, the cell number change is -9.52%. In addition, the AC50 under setting [1] is 0.00731 µM [falling, full curve, poor fit]. `O=C1c2ccccc2CC1Sc1nnc(-c2ccncc2)o1` (configuration not stated): the cell number change is 31.9%. The AC50 under setting [1] was 18.4 µM [rising, single point]. As for `COc1ccc(C2=NN(C(=O)CCC(=O)O)C(c3ccc(F)cc3)C2)cc1` (configuration not stated), the cell number change came out at 2.29%. Moreover, under setting [2], the AC50 was 0.411 µM [rising, full curve].

For `Cc1ccc(S(=O)(=O)N2CCN(CC(=O)N/N=C/c3ccc(C)o3)CC2)cc1`, the cell number change turned out to be 11%. In addition, the AC50 under setting [2] is 0.00461 µM [rising, full curve, poor fit].

In the case of `CCN1/C(=C/c2ccc3ccccc3[n+]2CCCS(=O)(=O)[O-])C=Cc2cc(C)ccc21`, the cell number change is 6.92%. In addition, under setting [1], the AC50 was 2.06 µM [rising, partial curve, poor fit].

Regarding `Cc1ccc(C)c(Oc2nnnn2-c2ccccc2)c1`, the cell number change was 14.9%.

For `NC(=O)c1ccc(-c2c(-c3ccccc3)sc3ccccc23)cc1`, the cell number change was determined as 19.8%. For the same compound, under setting [2], the AC50 is 0.13 µM [rising, full curve]. On to `Cc1ccc2cc(C(c3nnnn3C(C)(C)C)N3CCCCCC3)c(=O)[nH]c2c1` (configuration not stated), for which the cell number change was found to be 96.3%. The AC50 under setting [1] was 8.2 µM [rising, partial curve]. Moreover, under setting [2], the AC50 is 3.66 µM [rising, full curve, poor fit]. Regarding `Clc1ccc(Sc2ccc(/C=N/n3cnnc3)o2)cc1`, the cell number change turned out to be 3.07%. Consider `C[N+](C)(C)CCCC(=O)c1ccc2c(c1)OCO2`, for which the cell number change was -14.8%. Further, the AC50 under setting [1] is 0.116 µM [falling, full curve, poor fit]. For the compound `O=C(CCCNC(=O)c1ccc(Cl)cc1)Nc1cccc(F)c1`, the cell number change was 9.4%. Under setting [2], the AC50 is 0.0651 µM [falling, full curve, poor fit]. For `O=C(O)c1ccnc(C(=O)O)c1`, the cell number change was -3.97%. Under setting [2], the AC50 was 18.4 µM [rising, single point]. As for `COc1ccc(NC(=O)c2coc3ccccc23)cc1OC`, the cell number change came out at 3.13%. Moreover, the AC50 under setting [2] was 0.58 µM [rising, single point]. As to `CSc1ccc(C(=S)N2CCCC2)cc1`, the cell number change was 2.2%. For `CCO/N=C(\C)c1c(O)c2ccccc2n(C)c1=O`, the cell number change came out at 8.16%.

Regarding `Cc1ccc(-c2noc(CSc3nnc(Cc4ccccc4)n3-c3ccc(Cl)cc3)n2)cc1`, the cell number change was -19.5%. For the compound `CC(=O)Nc1ccc(S(=O)(=O)NNC(=O)c2cccc([N+](=O)[O-])c2)cc1`, the cell number change is -3.97%. Besides, the AC50 under setting [2] is 20.6 µM [rising, single point]. Regarding `COc1ccc(C(=O)COC(=O)c2sc(C)nc2C)cc1OC`, the cell number change was -5.06%. Further, the AC50 under setting [2] is 0.00461 µM [rising, full curve, poor fit]. In the case of `Fc1ccccc1C1CCN(Cc2nc(COc3ccccc3)no2)C1` (configuration not stated), the cell number change was determined as 21.1%. Moreover, under setting [2], the AC50 is 3.66 µM [rising, full curve, poor fit]. Turning to `COC(=O)Cc1c(C)[nH]n(-c2cc(Cl)cc(Cl)c2)c1=O`, the cell number change is -11.1%. For `Clc1ccc(C2=CSC3=NCCN23)cc1Cl`, the cell number change was 12.1%. Also, the AC50 under setting [2] is 1.64 µM [rising, full curve, poor fit]. As for `CCOC(=O)N1CCN(CC(=O)N2CCC(C(N)=O)CC2)CC1`, the cell number change came to 23.5%. In the case of `Cc1ccc(S(=O)(=O)N2CCCC(c3nc4c(nnn4Cc4ccc5c(c4)OCCO5)c(=O)[nH]3)C2)cc1` (configuration not stated), the cell number change was found to be 8.58%. For the same compound, the AC50 under setting [2] is 14.6 µM [falling, partial curve]. On to `COc1ccc(NC(=O)CSc2nnc(-c3ccc(C)cc3)n2N)cc1`, for which the cell number change was -0.961%. Besides, the AC50 under setting [2] is 1.03 µM [falling, partial curve]. As for `Cc1cc(OC(C)C(=O)NC2CCN(Cc3ccccc3)CC2)c2c(C)cc(=O)oc2c1` (configuration not stated), the cell number change was 8.56%. Moreover, the AC50 under setting [2] is 4.61 µM [rising, full curve]. `COc1cc(/C=N\NC(=O)c2ccc(Cn3cc(Br)c([N+](=O)[O-])n3)o2)cc(OC)c1O`: the cell number change was 0.482%. Also, under setting [2], the AC50 is 11.6 µM [falling, partial curve, poor fit]. On to `C(/C=C/C=C/Nc1ccccc1)=Nc1ccccc1`, for which the cell number change came to 1.63%. Moreover, under setting [2], the AC50 is 6.51 µM [falling, single point]. `O=c1cc(C23CC4CC(CC(C4)C2)C3)[nH][nH]1`: the cell number change is -56.2%. Besides, the AC50 under setting [1] is 23.1 µM [falling, single point]. Consider `Cc1ccc(C)c(N2CCN(S(=O)(=O)c3ccc4c(c3)CC(=O)N4C)CC2)c1`, for which the cell number change came to 2.29%. Besides, the AC50 under setting [2] is 29.1 µM [rising, single point].

In the case of `COc1ccc(NC(=O)CSc2nnc(C)n2N)cc1S(=O)(=O)N1CCCCC1`, the cell number change is 15.3%. Further, the AC50 under setting [1] is 0.82 µM [falling, full curve]. In addition, the AC50 under setting [2] is 0.82 µM [falling, full curve]. For `O=C(CO/N=C/c1ccc(OC(F)F)cc1)NC1CCCCC1`, the cell number change was determined as 26.8%. With `COc1ccccc1NC(=O)CSc1nc2sc(C)c(C)c2c(=O)n1C`, the cell number change amounted to 0.833%. Moreover, the AC50 under setting [2] is 0.517 µM [rising, partial curve, poor fit]. Turning to `O=c1c2c([N+](=O)[O-])cc([N+](=O)[O-])cc2sn1Cc1ccccc1`, the cell number change is -102%. Moreover, under setting [1], the AC50 was 5.17 µM [falling, full curve]. In addition, the AC50 under setting [2] is 4.61 µM [falling, full curve]. As for `CCCn1nc(NC(=O)c2cccs2)c2cc3cc(OC)ccc3nc21`, under setting [2], the AC50 was 0.411 µM [rising, full curve].

Consider `COc1cc2c(cc1OC)CN(CC(=O)Nc1ccc(F)cc1)C(C(=O)O)C2` (configuration not stated), for which the cell number change is 17.7%. For the same compound, the AC50 under setting [2] is 7.31 µM [rising, single point].

As for `Cc1cccc(CS(=O)(=O)Cc2ccc(C(=O)NC(C)c3ccccc3)o2)c1` (configuration not stated), the cell number change was determined as 2.64%. For the same compound, the AC50 under setting [2] was 6.51 µM [falling, single point]. Take `CN(C)S(=O)(=O)c1cc(NC(=O)CNCCN2CCOCC2)ccc1Cl`: the cell number change worked out at 5.55%. Same read-out and setting: the value for `CCOC(=O)CSc1nnc(-c2ccc(OC)cc2)n1CC` was -9.53%.

As for `Cn1ncc(Cl)c1C(=O)N1CCN(c2ccc(F)cc2)CC1`, the cell number change is -10.5%. Under setting [2], the AC50 is 32.6 µM [rising, single point]. On to `Cc1ccc(CSC2=NCCN2C(=O)c2ccc([N+](=O)[O-])cc2)cc1`, for which the AC50 was 6.51 µM [falling, single point] under setting [1] and 4.11 µM [falling, partial curve] under setting [2]. Consider `CCN(CC)S(=O)(=O)c1cccc(-c2nnc(SCc3ncc(-c4ccccc4)o3)n2C)c1`, for which the cell number change was -0.486%. The AC50 under setting [2] is 4.61 µM [falling, full curve, poor fit]. Consider `Cc1cccc(-n2ccnc2SCC(=O)Nc2cc(C)on2)c1`, for which the AC50 under setting [1] was 6.51 µM [rising, partial curve, poor fit]. Turning to `Cn1c(N)c(C(=O)CCl)c(=O)n(C)c1=O`, the cell number change was found to be 44.8%.

Regarding `Cn1c(CNC(=O)c2ccc3c(c2)OCO3)nnc1SCC(=O)Nc1ccc(F)cc1`, the cell number change stood at 13.2%. Besides, under setting [2], the AC50 is 0.461 µM [falling, single point]. Turning to `CCCCn1c(N)c(N(CC(C)C)C(=O)COC(=O)Cc2c(C)nc3ccccc3c2C)c(=O)[nH]c1=O`, the AC50 under setting [2] is 29.1 µM [rising, single point]. With `CC(C)CSc1nc2ccccc2n1CC(N)=O`, the cell number change is -24.8%. Moreover, the AC50 under setting [1] is 3.66 µM [falling, full curve, poor fit]. Also, the AC50 under setting [2] is 25.9 µM [rising, single point]. Consider `COc1ccc(OC)c(-c2csc(NC(=O)CSCc3c(C)noc3C)n2)c1`, for which the cell number change is -19.4%. For the same compound, the AC50 under setting [2] is 2.91 µM [rising, partial curve].
